# Measurements as given in paper PMC2033583, “Temperature sensitivity for conformation is an intrinsic property of wild-type p53”.
# Sequences of proteins named here, by UniProt entry; tags and fusion partners are left off.
# UniProt P02340, whole entry: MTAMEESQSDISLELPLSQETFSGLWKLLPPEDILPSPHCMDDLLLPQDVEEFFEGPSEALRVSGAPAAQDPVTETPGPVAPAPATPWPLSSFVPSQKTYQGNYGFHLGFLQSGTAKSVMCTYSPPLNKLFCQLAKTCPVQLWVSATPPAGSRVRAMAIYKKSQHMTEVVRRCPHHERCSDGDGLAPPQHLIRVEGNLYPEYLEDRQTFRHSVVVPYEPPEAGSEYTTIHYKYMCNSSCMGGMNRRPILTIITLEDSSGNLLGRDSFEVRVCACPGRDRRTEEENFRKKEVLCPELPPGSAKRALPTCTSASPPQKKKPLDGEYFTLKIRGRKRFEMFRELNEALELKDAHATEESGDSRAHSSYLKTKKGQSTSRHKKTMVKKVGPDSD
# For at least one entry, the source does not settle the construct or the ends of the probe. A weaker result is weaker than the reference pair of the same experiment. At least one verdict rests on a figure or table, not on a statement of the authors.
# Molecular target: p53 (murine wild-type) (mouse) (UniProt P02340)
# Test: EMSA
# Conditions: EMSA on 4% polyacrylamide gels with PAb 421, reticulocyte lysate p53 pre-exposed to OP 20 min at 30 or 37 C, binding buffer, protein translated in vitro, label: 32P
sequence,measurement,setting,value
GGGCATGTCCGGGCATGTCC (double strand) [p53 CON],binding result,"increasing 1,10-phenanthroline (up to mM), 20 min at 37 C, PAb 421, DNA binding inhibited",binds more weakly
same,binding result,"no 1,10-phenanthroline, PAb 421 (supershift)",binds
